According to US9107879B1, “Methods of increasing the cytotoxicity of chemotherapeutic agents with multisubstrate inhibitors of histone, protein-lys, polyamine acetylation, and polyamine metabolism” (Vanderbilt University, priority 2010, dated 2015):
For at least one compound, name, drawing or mass did not settle the structure.

Legend:
[1] = tested on: endogenous HATs associated with solubilized chromatin; conditions: literature (Bandyopadhyay et al 2009; Parello et al. 1990); cited from earlier work
H358 lung cancer cells = experiment: inhibition of cellular uptake of [3H]spermidine; format: cell-based; conditions: 2 hr incubation; at high enough concentration
γ-H2A.X in H358 cells = experiment: double strand break / gamma-H2A.X Western and co-immunoprecipitation; format: cell-based
Procedure: Also shown are controls for no treatment (“c” minus 1a) or treatment with 1a only (“c” plus 1a). Each lane represents 60 μg protein. […] Each lane represents 60 μg protein.
To measure DSB repair, cells were incubated for 1 hour with 10 μM camptothecin to induce DSBs, followed by incubation in the presence or absence of 50 μM 1a. At fixed times, histones were prepared by extraction in 0.2M H2SO4 as described previously and 50 μg extract was analyzed by 12% SDS-PAGE followed Western analysis as described previously, using rabbit polyclonal anti-γ-H2A.X [phosphor ser 139] (Novus Biologicals, Littleton, Colo.) or anti-H3 (Upstate Biotechnology, Inc, Lake Placid, N.Y.). Band intensities were quantitated digitally. To study acetylation of γ-H2A.X, we carried out co-immunoprecipitation analysis using 50 μg extract protein in immunoprecipitation buffer (10 mM sodium phosphate pH 7, 0.15 M NaCl, 0.1% SDS, 1% NP40, 1% sodium deoxycholate, aprotinin, 1 mM PMSF, complete protease inhibitors (Roche) using immobilized anti-acetyl-lysine (Millipore, Temecula, Calif.) in the immunoprecipitation step. The immunoprecipitated material was then analyzed as for Western analysis using anti γ-H2A.X.
Double strand breaks (DSBs) can be formed by a variety of DNA damaging agents, including camptothecin, cisplatin, 5FU, and UVC radiation (Avemann K, et al., 1988, Mol Cell Biol, 8: 3026-34; Bogdanov K V, et al. 1997, Br J Haematol, 98:869-72; Pavon M A, et al., Int J Cancer, 2008, 123:1068-79) implying that DSB repair may play a role in reducing their cellular toxicity. To examine how 1a treatment affects DSB repair in H358 cells we made use of the fact that the histone variant, H2A.X becomes phosphorylated at sites of double strand breaks (denoted γ-H2A.X), and can be detected by immunoblot analysis of acid extracted cells (Rogaku E P, et al., 1999, J Cell Biol, 146:905-16). […] Total H3 levels and H2A.X levels (control) are unaffected by these treatments (FIG. 4B). To follow DSB repair, H358 cells were treated with 10 μM camptothecin for 1 hour to induce a high level of double-stranded DNA breaks, followed by incubation in the presence or absence of 50 μM 1a for various lengths of time. […] In contrast, γ-H2A.X levels persist in cells treated with 1a, indicating persistence of double strand breaks. Levels of total histone H3 and H2A.X (control) remain unchanged in both cases over the same time period (FIG. 4C).
Acetylation of γ-H2A.X is required for its removal and replacement with non phosphorylated H2A.X during DNA repair, and failure of histone acetylation adjacent to double strand breaks has been reported to impair the efficiency of DNA repair. […]

[2] = tested on: histone H3 lysine 9 acetylation in H358 cells; experiment: Western analysis of histone H3 lysine 9 acetylation/methylation; format: cell-based; conditions: 50 μM 1a
Procedure: (A) Structures of 1a, and the acetylated side chain of a lysine residue within the polypeptide chain of a protein targeted by the acetylating enzyme (R1 and R2 are the main chain elements on both sides of the lysyl residue). (B) [^3H]-thymidine incorporation into DNA of H358 cells pulsed for 6 hrs at three different time points after the addition of increasing concentrations of 1a, i.e., at 6-12 hrs (12 hr curve), at 18-24 hours (24 hr curve), or at 42-48 hrs (48 hr curve). Incorporation is represented as a percentage relative to control (untreated) cells. (C) Cell cycle analysis of propidium iodide-stained cells harvested at various times after addition of 50 μM 1a. % of cells in G1, S, and G2 represents the average of two independent profiles. […]
One 10-cm plate of H358 lung cancer cells (about 2×10^6 cells), grown in DMEM+10% Fetal bovine serum as described in reference, were treated for 24 hours with 50 μM1a inhibitor. […] Treated cells and untreated (control) cells were harvested by lysing in buffer containing 10 mM Hepes pH 7.5, 100 mM NaCl, 300 mM sucrose, 3 mM MgCl2, 1 mM EDTA, 1 mM DTT, 0.5% Triton X-100, 1 mM PMSF, protease inhibitor pellet (Roche) and analyzed on 10% SDS-PAGE gels, followed by Western immunoblot analysis of total histone H3, methylated histone H3 (methylated on lysine 9), and acetylated histone H3 (acetylated on lysine 9). […]

## CC(C)(COP(=O)(O)OP(=O)(O)OC[C@H]1O[C@@H](n2cnc3c(N)ncnc32)[C@H](O)[C@@H]1OP(=O)(O)O)[C@@H](O)C(=O)NCCC(=O)NCCSCC(=O)NCCCNCCCCN [1a, spermidine[N1]-CoA]
[1]
  inhibitory activity against endogenous HAT: comparable inhibitory activity
H358 lung cancer cells
  inhibition of spermidine uptake: block most cellular uptake of spermidine
γ-H2A.X in H358 cells; 5 nM camptothecin 18 hours + 50 μM 1a
  acetylation of γ-H2A.X: fail to acetylate γ-H2A.X
γ-H2A.X in H358 cells; 10 μM camptothecin 1 hour, then 50 μM 1a
  γ-H2A.X levels after camptothecin-induced double strand breaks: persist
γ-H2A.X in H358 cells; 50 μM 1a + UVC, 5-FU, cisplatin or camptothecin, 18 hours
  γ-H2A.X level, treatments combined with 1a: increase dramatically
γ-H2A.X in H358 cells; 18 hours post-start, 1a 50 μM, 5FU 2 μM, cisplatin 2 μM, camptothecin 5 nM
  γ-H2A.X level, single agent: undetectable
[2]
  effect on histone H3 lysine 9 methylation: not affected
